Results: US20150322149A1
No constants are given. Whether binding was seen depends on the method and setting. Some results given as binding are weak or reduced against the parent protein; the word gives no strength.

Sequences of proteins named here, by UniProt entry; tags and fusion partners are left off. Residues count along the entry.
UniProt P05067, residues 672-713: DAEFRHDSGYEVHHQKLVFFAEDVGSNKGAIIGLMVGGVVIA

Columns and labels:
[1] = target: Abeta in amyloid plaques of APP transgenic mouse brain cryosections (UniProt P05067); assay: immunofluorescence staining of 18-month APP transgenic mouse brain cryosections
[2] = target: Abeta in amyloid plaques of APP transgenic mouse brain cryosections (UniProt P05067); assay: immunofluorescence staining of 18-month brain cryosections

binding [1]: binds
binding [2]: binds
B1: mAb31 (human monoclonal antibody recognizing Abeta; INN Gantenerumab) (antibody, V domains shown)
VH: QVELVESGGGLVQPGGSLRLSCAASGFTFSSYAMSWVRQAPGKGLEWVSAINASGTRTYYADSVKGRFTISRDNSKNTLYLQMNSLRAEDTAVYYCARGKGNTHKPYGYVRYFDVWGQGTLVTVSS
VL: DIVLTQSPATLSLSPGERATLSCRASQSVSSSYLAWYQQKPGQAPRLLIYGASSRATGVPARFSGSGSGTDFTLTISSLEPEDFATYYCLQIYNMPITFGQGTKVEIKR
